# Primary screen of a compound library

A: 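Whole-cell assay for inhibitors of Mycobacterium tuberculosis growth, labelled Cornell in the record; the read-out is not stated. The concentration is filed as 10 mM, unlikely as a test dose, so the dose is not known. The record gives no direction; compounds strong in two other growth screens of this library score well above the rest, so higher reads as stronger inhibition. Of about 53,000 compounds tested this way, about 900 (1.7%) reached 50% or more in at least one test.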
B: 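Assay on Mycobacterium tuberculosis, filed only as a heat shock assay from Cornell; the read-out is not stated. The concentration is filed as 10 mM, unlikely as a test dose, so the dose is not known. Direction is inferred from retests: higher values go with stronger inhibition. About 69,000 compounds were tested under these conditions; 1.4% (about 930) showed 50% or more at least once.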

The filed quantity is “Percent Effect” (%).
The controls that fix the scale are not given in the record; negative values are as filed.
This is an unselected part of the compounds tested.
A dash means the value is not listed here; it may have been measured.

| Compound | A | B |
|---|---|---|
| `Cn1cc(Cl)c(CN2CCn3nc(C(=O)N4CCCC4)cc3C2)n1` | 3.614 | 12.47 |
| `Cc1cc(-c2cnc(NCc3ccc4c(c3)OCO4)nc2C(C)C)on1` | 24.22 | -9.383 |
| `CN1CCC(Oc2ccc(-n3ccnc3-c3ccncc3)cc2)CC1` | - | 8.304 |
| `Cc1ccc(-c2cn3c(n2)CO[C@@H](CNCc2nccs2)C3)cc1` | 2.292 | -19.24 |
| `Cc1n[nH]c(C2CN(C(=O)c3csnn3)CCO2)n1` (stereo not drawn) | -9.85 | 6.597 |
| `CN1CCOCC12CCN(c1nncs1)CC2.O=C(O)C(F)(F)F.O=C(O)C(F)(F)F` | -17.09 | -30.51 |
| `CCn1nccc1CNC(=O)NC1CCCCC1` | -11.08 | -5.121 |
| `CCn1nc(C)c2nc(C)nc(N(C)Cc3ccco3)c21` | 21.23 | -0.732 |
| `COC(=O)CCCC(=O)N(C)CC1Cc2ccccc2CN1C` (stereo not drawn) | 10.81 | -4.569 |
| `Cc1cc(SCC(N)=O)nc(-c2cccc(F)c2)n1` | 21.86 | -7.382 |
| `O=C(NCC1CCS(=O)(=O)C1)c1cccc(CN2CCCC2)c1` (stereo not drawn) | 3.934 | 9.314 |
| `c1ccc2c(OCCN3CCn4c(nnc4C4CC4)C3)cccc2c1` | -2.695 | -17.55 |
| `COc1cc(CNc2cnn(CC(F)F)c2)ccc1O` | -38.39 | -18.27 |
| `CCN1CC2(CC1=O)CN(C(=O)c1ccoc1)CCN(C(=O)N(C)C)C2` (stereo not drawn) | -9.906 | 4.376 |
| `CN(C)c1cc(N2CCN(c3ccccn3)CC2)ncn1` | -31.94 | 0.7299 |
| `COc1ccccc1OC1CN(C(=O)c2ccccc2C(C)=O)C1` | -3.386 | 2.426 |
| `Cc1nc(N2CCCC2)nc2c1CCN(C(=O)NC(C)C)CC2` | -35.89 | -36.15 |
| `CN(CCc1ccccc1)C(=O)c1cccnc1OCC(F)(F)F` | -5.856 | -6.771 |
| `CN1CCN(c2ncc3c(c2C(=O)O)CCN(C2CCOC2)C3)CC1.O=C(O)C(F)(F)F.O=C(O)C(F)(F)F` (stereo not drawn) | 7.421 | -19.2 |
| `[H][C@@]12C[C@H](C(=O)NCC3CC3)[C@@]([H])(CN(S(=O)(=O)Cc3ccccc3)C1)O2` | - | -9.931 |
| `Cc1nc(C2CCNCC2)cc(N2CCOc3ccccc3C2)n1` | -22.07 | 4.206 |
| `Cc1nc(CN2CCCC(NCCOc3ccccc3C#N)C2)no1` (stereo not drawn) | - | -17.59 |
| `CNc1ncc(CN(C)C(=O)CCc2[nH]nc3c2CCCC3)cn1` | - | -11.79 |
| `Cc1cc(NCc2csc(-c3ccsc3)n2)no1` | - | 18.92 |
| `COc1ccc(Cl)cc1-c1nc(N)nc(N(C)C)n1` | 31.47 | 13.77 |
| `OCCC1(NCc2ccc(-n3cccn3)cc2)CCOCC1` | -43.45 | 8.19 |
| `CC(C)c1nc2c(n1C)CCN(CC(=O)Nc1nccs1)C2` | - | 9.428 |
| `OC(COCc1ccccc1Cl)CN1CC(n2cccn2)C1` (stereo not drawn) | - | 2.803 |
| `COCCN(Cc1sccc1C)C(=O)COc1cccnc1` | 26.88 | -5.675 |
| `COc1c(CNC2CCCOc3ccccc32)c(C(C)C)nn1C` (stereo not drawn) | - | -7.708 |
| `CC(C)=CCCC1(C)C=Cc2c(cc(C)n(CCC(=O)O)c2=O)O1` (stereo not drawn) | 13.25 | 12.89 |
| `CCCOC1CCCN(c2nc(COC)nc3c2cnn3C)C1` (stereo not drawn) | 23.51 | 67.42 |
| `CCCn1cc(-c2cc(C(=O)N(C)C)c3cccc(C)c3n2)cn1` | 20.07 | 7.506 |
| `CN(C)S(=O)(=O)NC(=O)CC(c1ccccc1)C(F)(F)F` (stereo not drawn) | -6.091 | 4.944 |
| `Cc1sc2ccccc2c1S(=O)(=O)NCCNC(=O)C(C)C` | 6.384 | -3.542 |
| `CC(C)c1nc(C2CCCN2C(=O)c2nccnc2N)no1` (stereo not drawn) | 10.34 | -5.402 |
| `O=C(c1ncn2c1CNS(=O)(=O)c1ccccc1-2)N1CCOCC1` | -24.64 | -4.492 |
| `O=C(O)C(F)(F)F.[H][C@@]12COC[C@]1([H])[C@@H](OCC(=O)N(C)C)CN2Cc1nccs1` | 0.6041 | 23.04 |
| `CCN(Cc1ncc(C(C)(C)C)o1)Cc1ccccc1C` | -5.269 | -19.02 |
| `CC/C=C(/C)C(=O)NCc1ccc(OC)nc1` | - | 16.91 |
| `CCCc1cc(C(=O)N2CC(c3ccncc3)C2)ccn1` | -18.99 | 13.44 |
| `CC(C)c1cc(C(=O)N2CCCN(CCCc3ccccc3)CC2)[nH]n1` | 3.78 | 5.931 |
| `Cc1nc(C)n(CC2CCCN(CCC(=O)NC3CCCCC3)C2)n1` (stereo not drawn) | - | 15.32 |
| `Cc1nc2c(c(N3CCCOCC3)n1)CCN(C(=O)N1CCCC1)CC2` | 22.75 | -15.24 |
| `Cc1nc(Nc2ccccn2)cc(C2CCCN2Cc2ncc[nH]2)n1` (stereo not drawn) | 21.73 | 21.63 |
| `CC1CN(C)CCN1C(=O)c1cccn1Cc1ccncc1` (stereo not drawn) | - | -0.8182 |
| `c1cnn(CC2CN(Cc3csc(C4CCCCC4)n3)CCO2)c1` (stereo not drawn) | 24.76 | 12.53 |
| `COCC(=O)N1CCN(Cc2coc(-c3cccc(F)c3)n2)CC1` | -3.377 | -17.04 |
| `COc1cc(C(=O)N(Cc2ccco2)C2CC2)cc(OC)c1OC` | -45.96 | -35.28 |
| `[H][C@@]12COC[C@@H](Cc3nnc(C)o3)[C@]1([H])CN(C(=O)C1=CCCC1)C2` | 17.01 | 6.288 |
| `FC(F)(F)c1cccc(OC2CCN(Cc3ncc[nH]3)CC2)c1` | 9.158 | 10.06 |
| `O=C(O)C(F)(F)F.O=C(O)C(F)(F)F.[H][C@@]12CN(Cc3nccs3)C[C@H](C(=O)NCCOC)[C@]1([H])CCO2` | 37.38 | 16.87 |
| `CN(CCCc1cc(-c2ccc(F)cc2)n(C)n1)CC(N)=O` | 8.775 | 51.67 |

Once more, the final 7:

{"compound": "c1cnn(CC2CN(Cc3csc(C4CCCCC4)n3)CCO2)c1", "stereo": "stereo not drawn", "A": 24.76, "B": 12.53}
{"compound": "COCC(=O)N1CCN(Cc2coc(-c3cccc(F)c3)n2)CC1", "A": -3.377, "B": -17.04}
{"compound": "COc1cc(C(=O)N(Cc2ccco2)C2CC2)cc(OC)c1OC", "A": -45.96, "B": -35.28}
{"compound": "[H][C@@]12COC[C@@H](Cc3nnc(C)o3)[C@]1([H])CN(C(=O)C1=CCCC1)C2", "A": 17.01, "B": 6.288}
{"compound": "FC(F)(F)c1cccc(OC2CCN(Cc3ncc[nH]3)CC2)c1", "A": 9.158, "B": 10.06}
{"compound": "O=C(O)C(F)(F)F.O=C(O)C(F)(F)F.[H][C@@]12CN(Cc3nccs3)C[C@H](C(=O)NCCOC)[C@]1([H])CCO2", "A": 37.38, "B": 16.87}
{"compound": "CN(CCCc1cc(-c2ccc(F)cc2)n(C)n1)CC(N)=O", "A": 8.775, "B": 51.67}

Source: ChEMBL document CHEMBL3988442, “University of Dundee, Small-Polar-MMV Screening Library” (2021).